The nature of this experiment: qHTS Assay for Lipid Storage Modulators in Drosophila S3 Cells.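 As to cell number change: cells counted by Cell Tracker Red CMTPX staining in the red channel.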 The settings on record: BODIPY lipid droplet fluorescence, 18-24 h; for cell number change: measured here: cell count max response, cells fed with added oleic acid. The gist of the method: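 Drosophila S3 cells loaded with oleic acid (400 uM, as added) and compounds at several concentrations; lipid droplets imaged by 488-nm laser-scanning cytometry, 500–530 nm intensity and object ratio to cell channel. Percent activity normalized to 20 uM Triacsin C.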
A general note: Quantitative high-throughput screening tests each substance at several concentrations.

Setting [1] is: measured here: lipid fluorescence (Fed channel) AC50, cells fed with added oleic acid.
The mark [2] stands for this setting: measured here: cell number channel AC50, cells fed with added oleic acid.

The list shows a part of the results. Shown are side measurements of this screen, not its main read-out; they come without a call. Most of these compounds were active or inconclusive in the main read-out, so they are no random draw. The note in brackets gives the kind of curve behind each potency; many fits are weak.

Broadly, the AC50 is the midpoint of the concentration-response curve, whichever way the signal moves. Higher therefore signals activity only at high concentration. As for `CC(C)c1ccc(CN2CCSCC2)cc1`, the cell number change came to 20.5%. Also, under setting [1], the AC50 is 0.00411 µM [rising, full curve, poor fit].
`N#CC1=C(N)N(c2ccccc2)C2=C(C(=O)CCC2)C1c1ccsc1` (stereo unspecified): the cell number change is -7.29%. Further, the AC50 under setting [1] was 0.326 µM [rising, full curve].
As to `CCOc1cc(N2CCOCC2)c(OCC)cc1NC(=O)c1[nH]c(C)c(C(C)=O)c1C`, the cell number change is -21.8%. In addition, the AC50 under setting [2] is 3.26 µM [rising, single point]. Also, the AC50 under setting [1] is 2.91 µM [rising, partial curve].
Turning to `O=[N+]([O-])c1ccc2nc(C3CCCCC3)[nH]c2c1`, the cell number change is -22.2%.
Turning to `CN(C)C(CNc1ncccn1)c1ccccc1` (stereo unspecified), the cell number change turned out to be 7.89%. Also, the AC50 under setting [1] is 1.26 µM [falling, partial curve].
`CSCCC(NS(=O)(=O)c1ccc(Cl)cc1)C(=O)OCC(=O)N(C(C)C)C(C)C` (stereo unspecified): the cell number change was determined as 2.84%.
Consider `CC(=O)c1cccc(OCc2cc(C(=O)N3CCC(N4CCCCC4)CC3)no2)c1`, for which the cell number change turned out to be 81.2%. The AC50 under setting [2] was 18.4 µM [rising, partial curve].
`COc1ccc(NC(=O)CSc2nccn2Cc2ccco2)cc1`: the cell number change came out at 0.578%. The AC50 under setting [1] is 6.51 µM [falling, partial curve, poor fit].
On to `O=C(Nc1ccc(N2CCN(C(=O)c3ccco3)CC2)c(Cl)c1)c1cccnc1`, for which the cell number change was -3.25%.
With `O=C1CCC([N+](=O)[O-])C(c2ccccc2C(F)(F)F)N1` (stereo unspecified), the cell number change was -7.82%. In addition, under setting [1], the AC50 is 3.26 µM [falling, full curve, poor fit].
Take `CC(C)OCCCNC(=O)C(C)Oc1ccccc1` (stereo unspecified): the cell number change is -9.86%. Further, the AC50 under setting [2] was 0.00411 µM [falling, full curve, poor fit]. The AC50 under setting [1] is 23.1 µM [falling, partial curve].
Turning to `O=C(Nc1ccncc1)Nc1cccc(C(F)(F)F)c1`, the cell number change is -38.1%. Also, the AC50 under setting [2] was 32.6 µM [falling, single point].
On to `Nc1nc(Nc2ccccc2)nc(N2CCCC2)c1[N+](=O)[O-]`, for which the cell number change is -31.5%. In addition, the half-maximal activity concentration (AC50) under setting [2] was 18.4 µM [falling, single point].
Consider `Cc1cc(/C=N/NC(=O)c2ccc(CN3CCOCC3)cc2)c(C)n1-c1ccccc1`, for which the AC50 under setting [2] was 6.51 µM [falling, single point].
In the case of `O=C(CSc1nnc2ccc(-c3ccc(F)cc3)nn12)N1CCCC1`, the cell number change was -35.2%. For the same compound, under setting [2], the half-maximal activity concentration (AC50) is 0.206 µM [falling, full curve, poor fit]. For the same compound, the AC50 under setting [1] was 0.517 µM [falling, full curve].
Consider `Cc1nc(C)c(N)c(=O)[nH]1`, for which the cell number change is -7.95%. For the same compound, the AC50 under setting [2] is 3.66 µM [falling, single point]. Also, the AC50 under setting [1] is 4.11 µM [falling, single point].
Regarding `COc1cccc(C(=O)NC2=NCCS2)c1OC`, the AC50 by setting is: under setting [2], 1.3 µM [falling, partial curve]; under setting [1], 1.46 µM [falling, full curve].
`O=C(O)CC(NC(=S)NCc1ccccc1)C(=O)O` (stereo unspecified): the cell number change was -3.19%. Also, under setting [1], the AC50 is 1.16 µM [falling, full curve].
On to `OC(COCCC12CC3CC(CC(C3)C1)C2)CN1CCCCC1` (stereo unspecified), for which the cell number change was found to be 4.05%.
Consider `CC1(C)Cc2noc(N)c2C(C)(C)N1OC(=O)c1cccs1`, for which the cell number change was 8.04%. The AC50 under setting [2] was 0.461 µM [falling, full curve]. Moreover, under setting [1], the AC50 was 1.46 µM [falling, partial curve].
Regarding `COc1cccc(NC(=S)NC(C)c2ccc(OC)c(OC)c2)c1` (stereo unspecified), the cell number change is -34.3%.
For the compound `Cc1cc(=O)n2nc(N3CCC(C(=O)NCCc4ccc(Cl)cc4)CC3)sc2n1`, the cell number change is 9.51%. The AC50 under setting [1] is 29.1 µM [falling, single point].
Regarding `Cc1ccc(NC(=O)CSCC(=O)Nc2ncc3c(n2)CC(c2ccco2)CC3=O)cc1` (stereo unspecified), the cell number change came to 109%. For the same compound, the AC50 under setting [2] is 20.6 µM [rising, single point].
Consider `COc1ccc(CC(=O)OCC(=O)Nc2c(C)n(C)n(-c3ccccc3)c2=O)cc1OC`, for which the cell number change was 12.8%. The AC50 under setting [1] is 13 µM [falling, partial curve, poor fit].
In the case of `COc1ccc(NC(=O)CSc2nnc(-c3ccccc3Cl)n2Cc2ccco2)c(OC)c1`, the AC50 under setting [1] is 29.1 µM [falling, single point].
For `CC1=CC(C)(C)N(S(=O)(=O)c2ccc(F)cc2)c2ccccc21`, the cell number change amounted to 24.1%. Moreover, the AC50 under setting [2] is 0.164 µM [falling, full curve].
Take `COc1ccc2c(c1)c1nc3ccccc3nc1n2Cc1ccc(OC)c(OC)c1`: the cell number change came to 23.3%.
For the compound `O=C(/C=C/c1ccccc1)NNc1ccc(Cl)cc1`, the cell number change is -22%. In addition, the AC50 under setting [2] is 0.164 µM [falling, full curve, poor fit].
For `CCCCc1nnc2c(N(C)S(=O)(=O)c3ccccc3)nc3ccccc3n12`, the cell number change was -2.03%. Also, under setting [1], the AC50 was 0.0731 µM [rising, full curve, poor fit].
With `O=c1[nH]c(C2CCN(S(=O)(=O)c3cccc(Cl)c3)CC2)nc2c1nnn2Cc1ccccc1`, the cell number change came out at 1.21%.
For `CSc1nsc(SCC(=O)Nc2ccc(C(N)=O)cc2)n1`, the AC50 under setting [1] was 11.6 µM [falling, single point].
`CCOCCCNC(=O)c1cn(C)c(=O)c2cc(OC)c(OC)cc12`: the cell number change was 37.2%. Further, the AC50 under setting [1] was 1.84 µM [falling, partial curve].
Take `Cc1cc(C(=O)NCc2cc(F)cc3c2OCOC3)nn1C`: the cell number change came out at 35.6%. The AC50 under setting [2] was 0.0103 µM [rising, full curve, poor fit]. Under setting [1], the AC50 is 0.92 µM [rising, full curve].
For `CC(C)C(c1nnnn1Cc1ccccc1)N1CCN(Cc2ccco2)CC1` (stereo unspecified), the cell number change is -1.33%. The AC50 under setting [1] is 3.66 µM [rising, single point].
Regarding `Cc1cc(C)n2nc(CNS(=O)(=O)c3cccc([N+](=O)[O-])c3)nc2n1`, the cell number change turned out to be 12.6%. Besides, the AC50 under setting [1] was 29.1 µM [falling, single point].
Consider `CC1CCCN(C(=O)CSc2n[nH]c(-c3cccs3)n2)C1` (stereo unspecified), for which the cell number change came to 53.8%. The AC50 under setting [2] is 18.4 µM [rising, single point].
For the compound `CCOc1ccc(CCNC(=O)CSCc2ccc(C)cc2)cc1OCC`, the cell number change was -18.6%. Also, the AC50 under setting [1] is 9.2 µM [falling, partial curve].
As for `C/C(=N\NC(=O)C1COc2ccccc2O1)c1ccc(N2CCOCC2)cc1` (stereo unspecified), the cell number change came to 27.8%. Also, the AC50 under setting [1] is 16.4 µM [rising, partial curve].
In the case of `CCS(=O)(=O)c1nc(S(=O)(=O)c2ccc(Cl)cc2)c(NCCCN2CCOCC2)s1`, the cell number change turned out to be 7.03%. Also, under setting [1], the AC50 is 0.0651 µM [rising, full curve, poor fit].
Consider `CCN(CC)S(=O)(=O)c1ccc(N2CCOCC2)c(NS(=O)(=O)c2ccc(C(C)C)cc2)c1`, for which the cell number change was found to be 9.67%. In addition, the AC50 under setting [1] is 23.1 µM [falling, single point].

Source of the values: PubChem BioAssay AID2685 (National Center for Advancing Translational Sciences (NCATS), 2010).
